# B1: TRAP1 (protein, UniProt Q12931 60-704, looked up)
# Heat shock protein 75 kDa, …: STQTAEDKEEPLHSIISSTESVQGSTSKHEFQAETKKLLDIVARSLYSEKEVFIRELISNASDALEKLRHKLVSDGQALPEMEIHLQTNAEKGTITIQDTGIGMTQEELVSNLGTIARSGSKAFLDALQNQAEASSKIIGQFGVGFYSAFMVADRVEVYSRSAAPGSLGYQWLSDGSGVFEIAEASGVRTGTKIIIHLKSDCKEFSSEARVRDVVTKYSNFVSFPLYLNGRRMNTLQAIWMMDPKDVREWQHEEFYRYVAQAHDKPRYTLHYKTDAPLNIRSIFYVPDMKPSMFDVSRELGSSVALYSRKVLIQTKATDILPKWLRFIRGVVDSEDIPLNLSRELLQESALIRKLRDVLQQRLIKFFIDQSKKDAEKYAKFFEDYGLFMREGIVTATEQEVKEDIAKLLRYESSALPSGQLTSLSEYASRMRAGTRNIYYLCAPNRHLAEHSPYYEAMKKKDTEVLFCFEQFDELTLLHLREFDKKKLISVETDIVVDHYKEEKFEDRSPAAECLSEKETEELMAWMRNVLGSRVTNVKVTLRLDTHPAMVTVLEMGAARHFLRMQQLAKTQEERAQLLQPTLEINPRHALIKKLNQLRASEPGLAQLLVDQIYENAMIAAGLVDDPRAMVGRLNELLVKALERH
# B2: PRR14 (protein, UniProt Q9BWN1 1-585, looked up)
# Proline-rich protein 14: MDLPGDSSPPGQPRLCRQPLTRALWGARSPKRPRLQLPGAPSPLEKASRRVLAVVLEDVMAVHMVPVVPSKQTSIPQHHSYHQDPVHRQPPASPPRQAGWSSQARPPDPLCLCREPLSRIHRTSSTLRRRSRTTPGPEEGPSQKVDRAPQPTLVVMLEDIASPRPPAEGFIDETPNFIIPAQRAEPMRIVRQPTPPPGDLEPPFQPSALPADPLESPPTAPDPALELPSTPPPSSLLRPRLSPWGLAPLFRSVRSKLESFADIFLTPNKTPQPPPPSPPMKLELKIAISEAEQSGAAEGTASVSPRPPIRQWRTQDHNTPALLPKPSLGRSYSCPDLGPPGPGTCTWPPAPPQPSRPRPRRHTVGGGEMARAPPPPRPCLRKEVFPLGGVGASPSLTTSCSSTASTSFSEPAEPRLGSTKGKEPRASKDQVLSEPETKTMGKVSRFRIRRTPARPQLNLTPMGLPRPIRLNKKEFSLEEIYTNKNYQSPTTRRTFETIFEEPRERNGTLIFTSSRKLRRAVEFRDSSLPRSRRPSRGVRAAGGRTVPPNVAPSPDVGPLLQQRLEELDALLLEEETVDREQPHWT
# B3: BYSL (protein, UniProt Q13895 1-437, looked up)
# Bystin: MPKFKAARGVGGQEKHAPLADQILAGNAVRAGVREKRRGRGTGEAEEEYVGPRLSRRILQQARQQQEELEAEHGTGDKPAAPRERTTRLGPRMPQDGSDDEDEEWPTLEKAATMTAAGHHAEVVVDPEDERAIEMFMNKNPPARRTLADIIMEKLTEKQTEVETVMSEVSGFPMPQLDPRVLEVYRGVREVLSKYRSGKLPKAFKIIPALSNWEQILYVTEPEAWTAAAMYQATRIFASNLKERMAQRFYNLVLLPRVRDDVAEYKRLNFHLYMALKKALFKPGAWFKGILIPLCESGTCTLREAIIVGSIITKCSIPVLHSSAAMLKIAEMEYSGANSIFLRLLLDKKYALPYRVLDALVFHFLGFRTEKRELPVLWHQCLLTLVQRYKADLATDQKEALLELLRLQPHPQLSPEIRRELQSAVPRDVEDVPITVE
# B4: LBR (protein, UniProt Q14739 1-615, looked up)
# Delta(14)-sterol reductase LBR: MPSRKFADGEVVRGRWPGSSLYYEVEILSHDSTSQLYTVKYKDGTELELKENDIKPLTSFRQRKGGSTSSSPSRRRGSRSRSRSRSPGRPPKSARRSASASHQADIKEARREVEVKLTPLILKPFGNSISRYNGEPEHIERNDAPHKNTQEKFSLSQESSYIATQYSLRPRREEVKLKEIDSKEEKYVAKELAVRTFEVTPIRAKDLEFGGVPGVFLIMFGLPVFLFLLLLMCKQKDPSLLNFPPPLPALYELWETRVFGVYLLWFLIQVLFYLLPIGKVVEGTPLIDGRRLKYRLNGFYAFILTSAVIGTSLFQGVEFHYVYSHFLQFALAATVFCVVLSVYLYMRSLKAPRNDLSPASSGNAVYDFFIGRELNPRIGTFDLKYFCELRPGLIGWVVINLVMLLAEMKIQDRAVPSLAMILVNSFQLLYVVDALWNEEALLTTMDIIHDGFGFMLAFGDLVWVPFIYSFQAFYLVSHPNEVSWPMASLIIVLKLCGYVIFRGANSQKNAFRKNPSDPKLAHLKTIHTSTGKNLLVSGWWGFVRHPNYLGDLIMALAWSLPCGFNHILPYFYIIYFTMLLVHREARDEYHCKKKYGVAWEKYCQRVPYRIFPYIY
# B5: PNISR (protein, UniProt Q8TF01 1-805, looked up)
# Arginine/serine-rich protein …: MWDQGGQPWQQWPLNQQQWMQSFQHQQDPSQIDWAALAQAWIAQREASGQQSMVEQPPGMMPNGQDMSTMESGPNNHGNFQGDSNFNRMWQPEWGMHQQPPHPPPDQPWMPPTPGPMDIVPPSEDSNSQDSGEFAPDNRHIFNQNNHNFGGPPDNFAVGPVNQFDYQHGAAFGPPQGGFHPPYWQPGPPGPPAPPQNRRERPSSFRDRQRSPIALPVKQEPPQIDAVKRRTLPAWIREGLEKMEREKQKKLEKERMEQQRSQLSKKEKKATEDAEGGDGPRLPQRSKFDSDEEEEDTENVEAASSGKVTRSPSPVPQEEHSDPEMTEEEKEYQMMLLTKMLLTEILLDVTDEEIYYVAKDAHRKATKAPAKQLAQSSALASLTGLGGLGGYGSGDSEDERSDRGSESSDTDDEELRHRIRQKQEAFWRKEKEQQLLHDKQMEEEKQQTERVTKEMNEFIHKEQNSLSLLEAREADGDVVNEKKRTPNETTSVLEPKKEHKEKEKQGRSRSGSSSSGSSSSNSRTSSTSSTVSSSSYSSSSGSSRTSSRSSSPKRKKRHSRSRSPTIKARRSRSRSYSRRIKIESNRARVKIRDRRRSNRNSIERERRRNRSPSRERRRSRSRSRDRRTNRASRSRSRDRRKIDDQRGNLSGNSHKHKGEAKEQERKKERSRSIDKDRKKKDKEREREQDKRKEKQKREEKDFKFSSQDDRLKRKRESERTFSRSGSISVKIIRHDSRQDSKKSTTKDSKKHSGSDSSGRSSSESPGSSKEKKAKKPKHSRSRSVEKSQRSGKKASRKHKSKSRSR
# B6: RRP36 (protein, UniProt Q96EU6 1-259, looked up)
# Ribosomal RNA processing …: MPGANYRAGAGAGAGARRPRGARDREEDGGGLEPAAVARDLLRGTSNMSFEELLELQSQVGTKTYKQLVAGNSPKKQASRPPIQNACVADKHRPLEMSAKIRVPFLRQVVPISKKVARDPRFDDLSGEYNPEVFDKTYQFLNDIRAKEKELVKKQLKKHLSGEEHEKLQQLLQRMEQQEMAQQERKQQQELHLALKQERRAQAQQGHRPYFLKKSEQRQLALAEKFKELKRSKKLENFLSRKRRRNAGKDRRHLPLSKE
# B7: HNRNPD (protein, UniProt Q14103 2-355, looked up)
# Heterogeneous nuclear …: SEEQFGGDGAAAAATAAVGGSAGEQEGAMVAATQGAAAAAGSGAGTGGGTASGGTEGGSAESEGAKIDASKNEEDEGHSNSSPRHSEAATAQREEWKMFIGGLSWDTTKKDLKDYFSKFGEVVDCTLKLDPITGRSRGFGFVLFKESESVDKVMDQKEHKLNGKVIDPKRAKAMKTKEPVKKIFVGGLSPDTPEEKIREYFGGFGEVESIELPMDNKTNKRRGFCFITFKEEEPVKKIMEKKYHNVGLSKCEIKVAMSKEQYQQQQQWGSRGGFAGRARGRGGGPSQNWNQGYSNYWNQGYGNYGYNSQGYGGYGGYDYTGYNNYYGYGDYSNQQSGYGKVSRRGGHQNSYKPY
# B8: SLC25A3 (protein, UniProt Q00325 50-362, looked up)
# Solute carrier family 25 …: AVEEQYSCDYGSGRFFILCGLGGIISCGTTHTALVPLDLVKCRMQVDPQKYKGIFNGFSVTLKEDGVRGLAKGWAPTFLGYSMQGLCKFGFYEVFKVLYSNMLGEENTYLWRTSLYLAASASAEFFADIALAPMEAAKVRIQTQPGYANTLRDAAPKMYKEEGLKAFYKGVAPLWMRQIPYTMMKFACFERTVEALYKFVVPKPRSECSKPEQLVVTFVAGYIAGVFCAIVSHPADSVVSVLNKEKGSSASLVLKRLGFKGVWKGLFARIIMIGTLTALQWFIYDSVKVYFRLPRPPPPEMPESLKKKLGLTQ
# Test system: BAF complex subunits and histone proteins
# Test: Mass spectrometry proteomics of purified HA-SS18 WT and HA-SS18-SSX1 complexes (Tables 5A-5E)
# Parameters: species or system human
# Conditions: HA-SS18SSX1_CHR_peptides: protein identified in the HA-SS18-SSX1 purification from solubilized chromatin (CHR), HEK-293T
Molecule,Total (total peptides),Unique (unique peptides)
B1,5,5
B2,5,5
B3,5,5
B4,5,5
B5,5,3
B6,5,4
B7,5,5
B8,5,3

# Same assay, conditions: HA-SS18SSX1 purification, NE (soluble nuclear extract) fraction, HEK-293T; peptides per identified protein
Molecule,Total (total peptides),Unique (unique peptides)
B1,6,6
B4,5,4
B7,3,3
B8,22,10

# Same assay, conditions: HA-SS18WT_CHR_peptides: HA-SS18 WT purification from nuclease-treated solubilized chromatin (CHR), HEK-293T; label = protein identified
Molecule,Total (peptides),Unique (peptides)
B1,4,4
B7,3,2

# Same assay, conditions: HA-SS18WT_CHR_peptides: protein identified in HA-SS18 WT BAF complex purification from nuclease-treated solubilized chromatin (CHR), HEK-293T
Molecule,Total (total peptides),Unique (unique peptides)
B2,1,1
B3,2,2
B6,2,2
B8,2,2

# Same assay, conditions: HA-SS18WT_NE_peptides: HA-SS18 WT complexes purified from nuclear extract (NE), HEK-293T; label = protein identified (Gene Symbol)
Molecule,Total (peptides),Unique (peptides)
B1,3,3
B4,7,6
B7,3,3
B8,24,13

# Source: US20250283871A1, “COMPOSITIONS AND METHODS FOR MODULATING THE INTERACTION BETWEEN SS18-SSX FUSION ONCOPROTEIN AND NUCLEOSOMES” (Dana-Farber Cancer Institute, Inc., priority 2020, published 2025)
